Measured values taken from paper PMC7619307, “The Golgi vesicle tether p115 can bind directly to the ER exit site organiser Sec16A” (Journal of cell science, 2026).
Where a chain is given by its changes, count along the chain named. No constants are given. Whether binding was seen depends on the method and setting. Binding seen in cells or lysates may run through a third protein. A yes stands for co-enrichment or nearness to the bait. Other partners may have been found. For some assays here: No binding means not detected with the bait. For some assays here: Where a sequence is shown, tags or fusion partners need not be part of it.

By UniProt entry, the sequences of proteins in these tests, tags left out.
UniProt Q99996: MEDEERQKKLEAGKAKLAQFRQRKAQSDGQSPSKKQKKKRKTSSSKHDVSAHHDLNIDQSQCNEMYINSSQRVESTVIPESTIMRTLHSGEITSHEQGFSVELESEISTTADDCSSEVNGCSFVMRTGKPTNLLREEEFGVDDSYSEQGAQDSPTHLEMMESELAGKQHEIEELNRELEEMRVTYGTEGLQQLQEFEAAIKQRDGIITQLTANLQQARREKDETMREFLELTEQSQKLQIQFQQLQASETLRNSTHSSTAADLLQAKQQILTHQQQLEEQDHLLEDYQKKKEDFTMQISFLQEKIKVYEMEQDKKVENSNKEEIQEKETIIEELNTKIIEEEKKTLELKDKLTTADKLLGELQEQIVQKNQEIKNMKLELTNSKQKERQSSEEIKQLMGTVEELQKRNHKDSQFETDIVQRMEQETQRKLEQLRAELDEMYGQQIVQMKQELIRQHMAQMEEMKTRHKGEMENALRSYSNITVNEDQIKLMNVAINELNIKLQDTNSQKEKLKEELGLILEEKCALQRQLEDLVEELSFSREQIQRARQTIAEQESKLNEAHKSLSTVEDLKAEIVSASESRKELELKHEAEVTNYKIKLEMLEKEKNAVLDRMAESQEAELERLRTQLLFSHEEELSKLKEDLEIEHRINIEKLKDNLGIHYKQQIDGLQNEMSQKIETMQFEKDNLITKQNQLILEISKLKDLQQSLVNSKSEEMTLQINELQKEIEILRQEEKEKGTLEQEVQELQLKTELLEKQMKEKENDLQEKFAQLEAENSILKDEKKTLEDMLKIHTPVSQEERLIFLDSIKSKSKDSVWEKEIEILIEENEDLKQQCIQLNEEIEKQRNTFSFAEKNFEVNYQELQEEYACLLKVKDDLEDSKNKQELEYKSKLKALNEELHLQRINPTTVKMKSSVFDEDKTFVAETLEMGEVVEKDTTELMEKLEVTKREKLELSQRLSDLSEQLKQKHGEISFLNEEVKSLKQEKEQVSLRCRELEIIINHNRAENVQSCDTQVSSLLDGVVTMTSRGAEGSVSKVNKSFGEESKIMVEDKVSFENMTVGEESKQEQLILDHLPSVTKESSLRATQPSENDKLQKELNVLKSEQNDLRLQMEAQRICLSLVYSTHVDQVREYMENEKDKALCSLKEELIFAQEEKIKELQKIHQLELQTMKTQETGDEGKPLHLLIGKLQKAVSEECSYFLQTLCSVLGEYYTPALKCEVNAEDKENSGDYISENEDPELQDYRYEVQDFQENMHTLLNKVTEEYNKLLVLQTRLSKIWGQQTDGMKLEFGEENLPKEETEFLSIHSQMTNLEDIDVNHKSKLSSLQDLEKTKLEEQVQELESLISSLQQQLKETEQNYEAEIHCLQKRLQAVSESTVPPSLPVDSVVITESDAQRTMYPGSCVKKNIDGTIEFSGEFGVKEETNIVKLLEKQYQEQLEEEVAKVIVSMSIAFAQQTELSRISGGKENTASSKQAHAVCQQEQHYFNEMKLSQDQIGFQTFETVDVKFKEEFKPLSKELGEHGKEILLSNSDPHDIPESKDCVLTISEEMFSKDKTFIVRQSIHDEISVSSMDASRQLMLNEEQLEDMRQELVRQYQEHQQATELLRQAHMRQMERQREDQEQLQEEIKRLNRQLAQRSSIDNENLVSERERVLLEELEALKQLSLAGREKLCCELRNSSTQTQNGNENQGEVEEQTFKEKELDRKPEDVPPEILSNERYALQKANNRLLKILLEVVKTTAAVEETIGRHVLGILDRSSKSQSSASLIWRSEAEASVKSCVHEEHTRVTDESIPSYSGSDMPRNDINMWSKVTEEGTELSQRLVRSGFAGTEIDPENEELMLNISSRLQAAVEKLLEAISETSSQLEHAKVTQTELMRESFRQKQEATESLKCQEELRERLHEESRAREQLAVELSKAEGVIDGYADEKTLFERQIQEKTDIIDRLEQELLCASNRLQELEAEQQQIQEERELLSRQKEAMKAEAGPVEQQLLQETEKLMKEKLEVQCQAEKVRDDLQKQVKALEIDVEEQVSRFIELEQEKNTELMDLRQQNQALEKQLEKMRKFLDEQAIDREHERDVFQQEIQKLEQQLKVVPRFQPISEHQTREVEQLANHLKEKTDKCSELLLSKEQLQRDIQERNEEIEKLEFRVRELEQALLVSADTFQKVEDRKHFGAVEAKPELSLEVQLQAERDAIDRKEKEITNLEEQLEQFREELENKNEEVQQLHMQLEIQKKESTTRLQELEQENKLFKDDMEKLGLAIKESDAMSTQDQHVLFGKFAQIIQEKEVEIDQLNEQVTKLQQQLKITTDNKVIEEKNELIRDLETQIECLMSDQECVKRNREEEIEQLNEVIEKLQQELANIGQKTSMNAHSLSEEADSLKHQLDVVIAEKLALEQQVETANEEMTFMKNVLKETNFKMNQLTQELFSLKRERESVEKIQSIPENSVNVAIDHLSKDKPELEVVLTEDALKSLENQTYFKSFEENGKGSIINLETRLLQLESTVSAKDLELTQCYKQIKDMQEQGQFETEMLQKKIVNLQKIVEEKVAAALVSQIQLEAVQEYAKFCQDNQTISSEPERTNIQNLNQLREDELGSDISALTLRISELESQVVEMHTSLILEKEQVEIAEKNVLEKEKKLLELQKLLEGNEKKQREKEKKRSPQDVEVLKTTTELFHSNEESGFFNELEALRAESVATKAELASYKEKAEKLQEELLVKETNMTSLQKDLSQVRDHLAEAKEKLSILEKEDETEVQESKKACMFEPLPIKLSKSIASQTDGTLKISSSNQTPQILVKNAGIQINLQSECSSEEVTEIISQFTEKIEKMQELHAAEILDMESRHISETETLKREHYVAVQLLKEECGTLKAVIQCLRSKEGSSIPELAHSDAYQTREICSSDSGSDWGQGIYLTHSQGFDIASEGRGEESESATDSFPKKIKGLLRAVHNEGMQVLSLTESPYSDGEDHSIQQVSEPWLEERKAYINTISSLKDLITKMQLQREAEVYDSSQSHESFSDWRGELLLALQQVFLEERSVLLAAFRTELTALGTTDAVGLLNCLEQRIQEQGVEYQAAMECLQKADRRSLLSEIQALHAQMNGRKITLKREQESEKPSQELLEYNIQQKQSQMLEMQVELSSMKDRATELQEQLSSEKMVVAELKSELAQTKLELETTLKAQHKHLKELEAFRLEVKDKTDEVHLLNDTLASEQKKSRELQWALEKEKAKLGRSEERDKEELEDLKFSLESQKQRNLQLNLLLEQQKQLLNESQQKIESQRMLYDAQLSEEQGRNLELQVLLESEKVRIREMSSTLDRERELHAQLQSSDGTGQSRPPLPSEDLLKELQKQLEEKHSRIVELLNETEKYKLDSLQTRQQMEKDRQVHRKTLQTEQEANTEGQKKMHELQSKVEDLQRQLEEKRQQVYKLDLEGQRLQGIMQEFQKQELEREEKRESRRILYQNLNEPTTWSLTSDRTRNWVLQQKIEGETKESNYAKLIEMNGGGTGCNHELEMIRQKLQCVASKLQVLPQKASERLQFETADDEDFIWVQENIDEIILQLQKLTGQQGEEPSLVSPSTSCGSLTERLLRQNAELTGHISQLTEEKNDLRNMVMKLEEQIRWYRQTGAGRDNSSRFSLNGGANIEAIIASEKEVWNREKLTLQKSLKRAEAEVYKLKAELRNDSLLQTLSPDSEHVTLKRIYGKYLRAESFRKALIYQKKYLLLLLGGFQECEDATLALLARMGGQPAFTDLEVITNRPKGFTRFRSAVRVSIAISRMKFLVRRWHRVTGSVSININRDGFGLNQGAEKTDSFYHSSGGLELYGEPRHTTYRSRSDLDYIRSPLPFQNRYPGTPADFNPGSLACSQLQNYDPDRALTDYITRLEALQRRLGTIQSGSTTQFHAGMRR
UniProt Q96SN8: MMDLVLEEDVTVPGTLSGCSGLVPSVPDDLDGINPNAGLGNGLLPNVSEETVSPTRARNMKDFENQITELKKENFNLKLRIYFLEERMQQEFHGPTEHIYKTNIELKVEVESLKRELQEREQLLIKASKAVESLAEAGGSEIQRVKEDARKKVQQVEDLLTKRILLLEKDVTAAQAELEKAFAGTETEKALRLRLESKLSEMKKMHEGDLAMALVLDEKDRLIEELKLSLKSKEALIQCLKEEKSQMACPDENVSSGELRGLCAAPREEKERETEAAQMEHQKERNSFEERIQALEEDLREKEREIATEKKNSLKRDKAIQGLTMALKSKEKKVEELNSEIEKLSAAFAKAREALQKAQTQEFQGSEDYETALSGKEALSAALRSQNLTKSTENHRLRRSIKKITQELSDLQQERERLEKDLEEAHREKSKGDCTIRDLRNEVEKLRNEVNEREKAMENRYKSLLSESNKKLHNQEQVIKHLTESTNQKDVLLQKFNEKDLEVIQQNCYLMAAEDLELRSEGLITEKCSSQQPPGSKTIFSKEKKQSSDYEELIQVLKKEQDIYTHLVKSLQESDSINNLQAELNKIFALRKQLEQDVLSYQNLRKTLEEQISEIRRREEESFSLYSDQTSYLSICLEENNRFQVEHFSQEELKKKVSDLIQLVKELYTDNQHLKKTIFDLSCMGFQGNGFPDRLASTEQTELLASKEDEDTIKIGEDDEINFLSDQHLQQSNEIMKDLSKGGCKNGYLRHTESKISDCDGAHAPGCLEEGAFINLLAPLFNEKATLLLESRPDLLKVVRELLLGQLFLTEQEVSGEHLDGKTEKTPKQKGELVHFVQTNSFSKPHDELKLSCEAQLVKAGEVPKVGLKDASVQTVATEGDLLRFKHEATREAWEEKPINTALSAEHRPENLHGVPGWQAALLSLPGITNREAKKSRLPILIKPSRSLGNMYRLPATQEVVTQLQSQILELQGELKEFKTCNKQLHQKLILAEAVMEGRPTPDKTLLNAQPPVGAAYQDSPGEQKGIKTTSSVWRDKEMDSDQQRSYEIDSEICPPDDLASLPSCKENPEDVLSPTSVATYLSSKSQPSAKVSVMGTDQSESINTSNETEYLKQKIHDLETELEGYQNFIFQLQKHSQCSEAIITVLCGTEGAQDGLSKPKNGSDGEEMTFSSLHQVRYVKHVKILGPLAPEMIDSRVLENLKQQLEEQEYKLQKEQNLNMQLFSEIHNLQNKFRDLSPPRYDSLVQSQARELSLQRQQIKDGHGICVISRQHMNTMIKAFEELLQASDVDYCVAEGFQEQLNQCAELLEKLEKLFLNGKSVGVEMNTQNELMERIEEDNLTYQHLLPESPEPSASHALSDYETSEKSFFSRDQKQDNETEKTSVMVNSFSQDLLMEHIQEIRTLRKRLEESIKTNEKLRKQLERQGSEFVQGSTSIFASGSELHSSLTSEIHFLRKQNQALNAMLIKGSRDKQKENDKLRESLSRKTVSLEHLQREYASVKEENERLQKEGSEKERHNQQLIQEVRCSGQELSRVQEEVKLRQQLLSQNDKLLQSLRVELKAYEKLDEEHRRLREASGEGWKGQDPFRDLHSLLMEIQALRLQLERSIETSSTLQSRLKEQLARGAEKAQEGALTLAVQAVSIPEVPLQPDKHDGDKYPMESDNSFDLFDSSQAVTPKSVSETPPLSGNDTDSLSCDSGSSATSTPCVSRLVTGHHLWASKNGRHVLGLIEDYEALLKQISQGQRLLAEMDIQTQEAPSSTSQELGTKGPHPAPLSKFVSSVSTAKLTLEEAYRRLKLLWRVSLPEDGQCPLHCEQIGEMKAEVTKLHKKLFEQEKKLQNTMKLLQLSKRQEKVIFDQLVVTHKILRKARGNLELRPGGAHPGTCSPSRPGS
UniProt Q9BQQ3: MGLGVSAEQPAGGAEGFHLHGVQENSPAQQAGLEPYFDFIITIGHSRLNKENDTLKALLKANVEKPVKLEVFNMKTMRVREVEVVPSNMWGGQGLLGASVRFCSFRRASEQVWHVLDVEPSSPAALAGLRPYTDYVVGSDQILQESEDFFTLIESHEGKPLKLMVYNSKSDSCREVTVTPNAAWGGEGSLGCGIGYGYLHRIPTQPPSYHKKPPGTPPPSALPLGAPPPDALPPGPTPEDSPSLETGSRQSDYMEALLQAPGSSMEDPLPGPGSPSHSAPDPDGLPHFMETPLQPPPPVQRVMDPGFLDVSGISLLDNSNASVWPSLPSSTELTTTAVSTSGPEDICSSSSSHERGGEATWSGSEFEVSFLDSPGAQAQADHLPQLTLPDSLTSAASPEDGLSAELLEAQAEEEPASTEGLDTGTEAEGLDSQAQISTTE

T1: full-length p115–GFP (wild type) (human) (UniProt O60763)
T1 sequence: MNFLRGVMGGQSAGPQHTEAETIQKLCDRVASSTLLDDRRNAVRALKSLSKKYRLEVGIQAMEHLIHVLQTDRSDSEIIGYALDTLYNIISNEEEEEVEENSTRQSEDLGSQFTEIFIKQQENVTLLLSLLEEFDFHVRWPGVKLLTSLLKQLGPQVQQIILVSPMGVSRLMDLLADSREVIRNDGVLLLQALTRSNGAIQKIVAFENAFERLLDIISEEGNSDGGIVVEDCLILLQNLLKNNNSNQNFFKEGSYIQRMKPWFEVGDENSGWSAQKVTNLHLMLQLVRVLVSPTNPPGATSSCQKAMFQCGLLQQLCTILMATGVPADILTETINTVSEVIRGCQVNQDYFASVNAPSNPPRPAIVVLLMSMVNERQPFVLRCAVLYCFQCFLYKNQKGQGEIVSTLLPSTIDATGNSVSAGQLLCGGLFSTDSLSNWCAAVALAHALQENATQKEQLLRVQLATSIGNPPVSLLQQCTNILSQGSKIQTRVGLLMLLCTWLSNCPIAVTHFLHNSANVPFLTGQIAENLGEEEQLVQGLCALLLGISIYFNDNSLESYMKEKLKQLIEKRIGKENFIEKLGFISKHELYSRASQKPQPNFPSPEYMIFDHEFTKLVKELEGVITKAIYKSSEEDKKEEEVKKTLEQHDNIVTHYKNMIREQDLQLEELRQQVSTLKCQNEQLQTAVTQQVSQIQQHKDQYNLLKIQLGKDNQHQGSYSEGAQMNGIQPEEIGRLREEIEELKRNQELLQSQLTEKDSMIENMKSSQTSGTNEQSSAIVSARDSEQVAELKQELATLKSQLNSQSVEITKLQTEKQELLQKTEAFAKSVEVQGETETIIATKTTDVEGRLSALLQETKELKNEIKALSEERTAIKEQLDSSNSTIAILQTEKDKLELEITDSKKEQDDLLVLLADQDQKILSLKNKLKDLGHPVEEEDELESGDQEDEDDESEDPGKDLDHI

T2: full-length p115–GFP with the Q462D mutation (human) (UniProt O60763)
T2 sequence: T1 sequence with Q462D

B1: GM130 (protein, UniProt Q08379 1-1002)
chain: MWPQPRLPPRPAMSEETRQSKLAAAKKKLREYQQRNSPGVPTGAKKKKKIKNGSNPETTTSGGCHSPEDTPKDNAATLQPSDDTVLPGGVPSPGASLTSMAASQNHDADNVPNLMDETKTFSSTESLRQLSQQLNGLVCESATCVNGEGPASSANLKDLESRYQQLAVALDSSYVTNKQLNITIEKLKQQNQEITDQLEEEKKECHQKQGALREQLQVHIQTIGILVSEKAELQTALAHTQHAARQKEGESEDLASRLQYSRRRVGELERALSAVSTQQKKADRYNKELTKERDALRLELYKNTQSNEDLKQEKSELEEKLRVLVTEKAGMQLNLEELQKKLEMTELLLQQFSSRCEAPDANQQLQQAMEERAQLEAHLGQVMESVRQLQMERDKYAENLKGESAMWRQRMQQMSEQVHTLREEKECSMSRVQELETSLAELRNQMAEPPPPEPPAGPSEVEQQLQAEAEHLRKELEGLAGQLQAQVQDNEGLSRLNREQEERLLELERAAELWGEQAEARRQILETMQNDRTTISRALSQNRELKEQLAELQSGFVKLTNENMEITSALQSEQHVKRELGKKLGELQEKLSELKETVELKSQEAQSLQQQRDQYLGHLQQYVAAYQQLTSEKEVLHNQLLLQTQLVDQLQQQEAQGKAVAEMARQELQETQERLEAATQQNQQLRAQLSLMAHPGEGDGLDREEEEDEEEEEEEAVAVPQPMPSIPEDLESREAMVAFFNSAVASAEEEQARLRGQLKEQRVRCRRLAHLLASAQKEPEAAAPAPGTGGDSVCGETHRALQGAMEKLQSRFMELMQEKADLKERVEELEHRCIQLSGETDTIGEYIALYQSQRAVLKERHREKEEYISRLAQDKEEMKVKLLELQELVLRLVGDRNEWHGRFLAAAQNPADEPTSGAPAPQELGAANQQGDLCEVSLAGSVEPAQGEAREGSPRDNPTAQQIMQLLREMQNPRERPGLGSNPCIPFFYRADENDEVKITVI

Legend:
Assay in all cases: affinity purification with mass spectrometry; GFP-tagged p115 forms precipitated on GFP-Trap agarose from transfected HEK293T lysate (10 mM Tris-HCl pH 7.5, 150 mM NaCl, 0.5 mM EDTA, 0.5% Triton X-100; washes with 300 mM NaCl; 4°C); label-free mass spectrometry, biological triplicates; compared with GFP alone, head against tail, or wild type against Q462D
[1] = target: T1, full-length p115–GFP (wild type) (human)
GFP–p115-tail (human) = target: GFP–p115-tail (human)
[2] = target: T2, full-length p115–GFP with the Q462D mutation (human)

Molecule | binding [1] | binding (GFP–p115-tail (human)) | binding [2]
AKAP9 (from UniProt Q99996 1-3907) | binds | – | –
CDK5RAP2 (from UniProt Q96SN8 1-1893) | binds | – | –
GORASP1 (from UniProt Q9BQQ3 1-440) | binds | – | –
PCM1 (from UniProt Q15154 1-2024) | binds | – | –
Sec31 (human (endogenous in HEK293T)) | no binding | – | –
B1 | binds | binds | binds
